# Measurements reported in patent publication US7718391B2, “Assays for identifying modulators of rhomboid polypeptides” (Medical Research Council, priority 2001, dated 2010).
# At least one compound was matched to its structure with a doubt left.
# Legend:
# [1] = test system: release of TGFα; test: Release/secretion of TGFα from transfected COS cells; assay type: cell-based, human; conditions: batimastat at 10:M
# Protocol: COS cells were grown in DMEM medium (supplemented with 10% foetal calf serum), and transfected with FuGENE 6 Transfection Reagent (Roche). Cells were transfected in 35 mm culture wells with 25-250 ng of each construct and empty plasmid to bring the total DNA to 1 μg per well. 24-30 hours post-transfection the medium was replaced with serum-free medium; this was harvested 24 hours later and cells were lysed in SDS-sample buffer. GFP was detected in conditioned medium and cell lysates by western blot with a rabbit polyclonal antibody. For some experiments the serum-free medium was supplemented with the metalloprotease inhibitor batimastat (British Biotech) or ilomostat (Calbiochem).
# Spitz, Star and Rhomboid-1 are the only Drosophila proteins present in the transfected mammalian cells. A possible hypothesis is that these proteins are able to recruit a mammalian protease to a processing complex. If this were the case, the principle candidate for the putative mammalian protease would be a member of the ADAM family of metalloproteases. These proteases have broad specificity and are responsible for the release of a large number of mammalian growth factors, including the Spitz homolog, TGFα. The possible involvement of these proteases was tested with the potent metalloprotease inhibitor batimastat (British Biotechnology) at 1 μM and 10 μM. […]
# [2] = molecular target: T1, Rhomboid-1 (Drosophila melanogaster, UniProt P20350); test: Rhomboid-1 and Star dependent cleavage of GFP-Spitz in transfected COS cells (western blot of medium); assay type: cell-based
# T1 construct: When co-expressed with Star and full-length Rhomboid-1 in the COS cell Spitz cleavage assay; expressed in transfected cells; host or cells: COS cells, pcDNA3.1 constructs, transient transfection
# T1 sequence (P20350 1-355): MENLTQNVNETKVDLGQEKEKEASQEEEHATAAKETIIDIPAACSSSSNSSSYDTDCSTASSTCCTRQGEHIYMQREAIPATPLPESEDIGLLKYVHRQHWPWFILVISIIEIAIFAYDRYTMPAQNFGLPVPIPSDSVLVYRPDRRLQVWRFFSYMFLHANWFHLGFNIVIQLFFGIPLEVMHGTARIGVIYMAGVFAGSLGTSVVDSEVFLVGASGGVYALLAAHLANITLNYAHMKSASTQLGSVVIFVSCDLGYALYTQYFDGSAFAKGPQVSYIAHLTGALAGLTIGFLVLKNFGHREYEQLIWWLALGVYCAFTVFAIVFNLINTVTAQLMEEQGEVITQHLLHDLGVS
# Protocol: COS cells were grown in DMEM medium (supplemented with 10% foetal calf serum), and transfected with FuGENE 6 Transfection Reagent (Roche). Cells were transfected in 35 mm culture wells with 25-250 ng of each construct and empty plasmid to bring the total DNA to 1 μg per well. 24-30 hours post-transfection the medium was replaced with serum-free medium; this was harvested 24 hours later and cells were lysed in SDS-sample buffer. GFP was detected in conditioned medium and cell lysates by western blot with a rabbit polyclonal antibody. For some experiments the serum-free medium was supplemented with the metalloprotease inhibitor batimastat (British Biotech) or ilomostat (Calbiochem). Cells were transfected as standard with 1 ng of Rhomboid-1 DNA (in 1 μg total DNA) and were then incubated in serum-free medium for 24 hours. The medium was then replaced with 0.5 ml serum free medium containing protease inhibitor at the indicated concentration and incubated for 1 hour. After 1 hour, the medium was collected, cleared by centrifugation, dialysed overnight against several changes of water and lyophilised. The resulting pellets were re-suspended in SDS sample buffer, boiled and analysed by Western blot. Transfections with a secreted form of Spitz were used in parallel to control for non-specific toxicity of the protease inhibitors or general inhibition of the secretory pathway. The proteolytic cleavage assay was recapitulated in a mammalian tissue culture system. Spitz was tagged with GFP near its N-terminus and transiently expressed in COS cells, in the presence or absence of Star and/or Rhomboid-1. The accumulation of the soluble extracellular fragment of GFP-Spitz in the cell medium was then measured by western blot.
# [3] = test system: secretion of Spitz induced by Star alone; test: Lower-level secretion of Spitz induced by Star alone in COS cells; assay type: cell-based, Drosophila; conditions: 1:M batimastat
# [4] = molecular target: T2, Rhomboid-1ΔN (Drosophila melanogaster, UniProt P20350); test: Rhomboid-1ΔN cleavage of GFP-Spitz in COS cells; assay type: cell-based; conditions: 1:M and 10:M batimastat
# T2 construct: Rho-1N and Rho-1ΔN include residues 1-89 and 89-355, respectively; expressed in transfected cells; host or cells: COS cells, pcDNA3.1 construct, transient transfection
# T2 sequence (P20350 89-355): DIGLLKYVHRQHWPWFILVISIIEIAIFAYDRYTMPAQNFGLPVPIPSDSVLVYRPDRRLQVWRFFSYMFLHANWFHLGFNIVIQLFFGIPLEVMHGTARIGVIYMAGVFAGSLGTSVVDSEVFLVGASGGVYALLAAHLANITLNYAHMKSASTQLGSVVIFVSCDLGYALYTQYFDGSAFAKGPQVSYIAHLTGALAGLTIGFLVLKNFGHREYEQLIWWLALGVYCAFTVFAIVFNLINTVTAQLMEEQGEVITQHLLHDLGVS
structure (smiles),measurement,setting,value
CNC(=O)[C@H](Cc1ccccc1)NC(=O)[C@H](CC(C)C)[C@H](CSc1cccs1)C(=O)NO [batimastat],release of TGFα,[1],inhibited
same,Rhomboid-1-dependent cleavage,"[2]; 1:M and 10:M, 2.5, 0.25 and 0.025 ng Rhomboid DNA per 35 mm well of COS cells",no effect
same,cleavage of Spitz by Rhomboid and Star,"[2]; batimastat at 1 μM and 10 μM, COS cells",did not affect
same,Rhomboid-1-dependent cleavage of Spitz,[2]; concentration not given,insensitive
same,"inhibition of Rhomboid activity, standard cleavage assay with panel of inhibitors",[2]; concentration not given,No inhibition
same,lower-level secretion of Spitz induced by Star alone,[3],completely inhibited
same,Rhomboid-1ΔN cleavage,[4],insensitive
